# Reference: PubChem BioAssay (NCATS)
# The inconclusive results got no clear call from the source; some entries with a clear call stand among them for comparison. Potencies of inconclusive entries are doubtful fits and often do not repeat. Active and inactive are the calls of the source. The call rests on the fitted dose curve; in most records, active means well fitted curve in the direction sought with a large enough effect; inconclusive means small, poorly fitted or top-dose-only effect, or another doubt; inactive means no such curve, though single readings can be large; an effect the other way counts as inactive or inconclusive.
# Assays:
# [1] = Quantitative High-Throughput drug screen in 47 multiple myeloma cell lines against the NCATS MIPE library collection: KHM11_PLB cell viability assay (AID 1918962); conditions: KHM11 myeloma cell viability, CellTiter-Glo ATP luminescence, 48 h; viability, % of DMSO control: at 45.8 µM (top of the series) unless noted; further: nearly all actives have a fitted effect of over 35% in size
# Summary of the method: (§1)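 Viability readout: CellTiter-Glo luminescence following 5 min room-temperature incubation with reagent. Prior exposure: 48 h, 37C, humidified 5% CO2, 500 cells per well.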
# [2] = Quantitative High-Throughput drug screen in 47 multiple myeloma cell lines against the NCATS MIPE library collection: Karpas25_ECACC cell viability assay (AID 1918968; further: nearly all actives have a fitted effect of over 35% in size)
# Summary of the method: (§2)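 CellTiter-Glo luminescence (ATP) after 48 h compound exposure, 37C/5% CO2; 500 cells/well; MIPE 4.0 approved/investigational drugs pinned in; DMSO = 100%, media only = 0% viability.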
# [3] = Quantitative High-Throughput drug screen in 47 multiple myeloma cell lines against the NCATS MIPE library collection: KMS27_JCRB cell viability assay (AID 1918970); conditions: KMS27 myeloma cells, CellTiter-Glo ATP viability, 48 h; viability (% of DMSO): at 45.8 µM (top of the series); further: nearly all actives have a fitted effect of over 30% in size
# Summary of the method: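 ATP-based viability (CellTiter-Glo luminescence) is measured in cells treated 48 h with approved and investigational drugs at 37 °C. Controls are DMSO-only wells for full viability and media-only wells for none.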
# [4] = Quantitative High-Throughput drug screen in 47 multiple myeloma cell lines against the NCATS MIPE library collection: KMS12BM_JCRB cell viability assay (AID 1918971); conditions: KMS12BM myeloma viability, CellTiter-Glo ATP, 48 h; viability, % of DMSO: at 45.8 µM (top of the series); further: nearly all actives have a fitted effect of over 35% in size
# Summary of the method: as §1
# [5] = Quantitative High-Throughput drug screen in 47 multiple myeloma cell lines against the NCATS MIPE library collection: KMS12PE_JCRB cell viability assay (AID 1918972); conditions: KMS12PE myeloma viability, CellTiter-Glo ATP, 48 h; viability: at 45.8 µM (top of the series); further: nearly all actives have a fitted effect of over 30% in size
# Summary of the method: (§3)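 Approved and investigational drugs from MIPE 4.0 were added by pin tool to 500 cells per well. After 48 hours at 37C, ATP-based CellTiter-Glo luminescence indicated remaining viability.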
# [6] = Quantitative High-Throughput drug screen in 47 multiple myeloma cell lines against the NCATS MIPE library collection: JIM3_ECACC cell viability assay (AID 1918963; further: nearly all actives have a fitted effect of over 35% in size)
# Summary of the method: as §1
# [7] = Quantitative High-Throughput drug screen in 47 multiple myeloma cell lines against the NCATS MIPE library collection: JIM1_ECACC cell viability assay (AID 1918964); conditions: JIM1 myeloma viability, CellTiter-Glo ATP luminescence, 48 h; viability (% of DMSO): at 45.8 µM (top of the series)
# Summary of the method: as §2
# [8] = Quantitative High-Throughput drug screen in 47 multiple myeloma cell lines against the NCATS MIPE library collection: H1112_PLB cell viability assay (AID 1918967; further: nearly all actives have a fitted effect of over 30% in size)
# Summary of the method: as §2
# [9] = Quantitative High-Throughput drug screen in 47 multiple myeloma cell lines against the NCATS MIPE library collection: JJN3_DSMZ cell viability assay (AID 1918966; further: nearly all actives have a fitted effect of over 50% in size)
# Summary of the method: as §2
# [10] = Quantitative High-Throughput drug screen in 47 multiple myeloma cell lines against the NCATS MIPE library collection: INA6_PLB cell viability assay (AID 1918965; further: nearly all actives have a fitted effect of over 55% in size); conditions: INA6 myeloma viability, CellTiter-Glo ATP luminescence, 48 h; viability (% of control): at 45.8 µM (top of the series) unless noted
# Summary of the method: as §3
# Potency means the concentration at half of the fitted maximal effect.
smiles,measurement,setting,value
CCOc1cc2ncc(C#N)c(Nc3ccc(F)c(Cl)c3)c2cc1NC(=O)C=CCN(C)C,Potency,[1],active: 20.9 µM
same,Potency,[2],active: 0.662 µM
same,Potency,[3],"inconclusive: 0.296 µM [cytotoxic, full curve, poor fit]"
same,Potency,[4],active: 5.26 µM
same,Potency,[5],"inconclusive: 0.0526 µM [cytotoxic, full curve, poor fit]"
COc1ccc(Cc2nccc3cc(OC)c(OC)cc23)cc1OC,Potency,[6],"inconclusive: 16.6 µM [cytotoxic, partial curve]"
same,Potency,[7],active: 16.6 µM
same,Potency,[8],"inconclusive: 3.72 µM [cytotoxic, partial curve, poor fit]"
same,Potency,[2],"inconclusive: 4.18 µM [cytotoxic, partial curve]"
same,Potency,[3],"inconclusive: 18.7 µM [cytotoxic, partial curve, poor fit]"
same,Potency,[5],"inconclusive: 16.6 µM [cytotoxic, partial curve]"
CCCCc1oc2ccc(NS(C)(=O)=O)cc2c1C(=O)c1ccc(OCCCN(CCCC)CCCC)cc1,Potency,[1],"inconclusive: 33.2 µM [cytotoxic, single point]"
same,Potency,[8],active: 18.7 µM
NC(=NCc1ccccc1)NC(=O)c1nc(Cl)c(N)nc1N,Potency,[6],"inconclusive: 33.2 µM [cytotoxic, single point]"
same,Potency,[7],"inconclusive: 3.32 µM [cytotoxic, full curve, poor fit]"
same,Potency,[9],inconclusive: 0.001 µM
same,Potency,[4],inactive
same,Potency,[5],active: 23.5 µM
Cn1cc(-c2[nH]c3cc(NC(=O)[C@H](N)C4CCCCC4)cc4c3c2C=NNC4=O)cn1,Potency,[6],active: 5.26 µM
same,Potency,[7],active: 0.296 µM
same,Potency,[9],active: 0.662 µM
same,Potency,[8],active: 0.935 µM
CN1CCN(c2ccc3nc(-c4c(N)c5c(F)cccc5[nH]c4=O)[nH]c3c2)CC1,Potency,[6],active: 13.2 µM
same,Potency,[9],active: 20.9 µM
same,Potency,[2],active: 2.64 µM
same,Potency,[4],active: 16.6 µM
CNC(=O)c1cccc(-c2ccc3c(N4CCOC[C@H]4C)nc(N4CCOC[C@H]4C)nc3n2)c1,Potency,[6],active: 0.0418 µM
same,Potency,[7],active: 0.0132 µM
same,Potency,[8],"inconclusive: 0.187 µM [cytotoxic, partial curve]"
same,Potency,[3],"inconclusive: 0.0296 µM [cytotoxic, full curve]"
same,Potency,[4],active: 0.0166 µM
CC(C)c1nc(CN(C)C(=O)N[C@H](C(=O)N[C@@H](Cc2ccccc2)C[C@H](O)[C@H](Cc2ccccc2)NC(=O)OCc2cncs2)C(C)C)cs1,Potency,[6],"inconclusive: 23.5 µM [cytotoxic, single point]"
same,Potency,[7],"inconclusive: 2.96 µM [cytotoxic, full curve, poor fit]"
same,Potency,[10],"inconclusive: 0.0148 µM [rising, full curve, poor fit]"
same,Potency,[9],"inconclusive: 4.69 µM [cytotoxic, partial curve, poor fit]"
same,Potency,[8],"inconclusive: 10.5 µM [cytotoxic, partial curve, poor fit]"
same,Potency,[2],"inconclusive: 37.2 µM [cytotoxic, single point]"
same,Potency,[3],inactive
CN(c1nccc(=O)[nH]1)C1CCN(c2nc3ccccc3n2Cc2ccc(F)cc2)CC1,Potency,[6],"inconclusive: 37.2 µM [cytotoxic, single point]"
same,Potency,[7],"inconclusive: 4.69 µM [rising, partial curve, poor fit]"
same,Potency,[9],"inconclusive: 33.2 µM [rising, single point]"
same,Potency,[3],"inconclusive: 0.264 µM [cytotoxic, full curve, poor fit]"
same,Potency,[4],"inconclusive: 0.0042 µM [rising, full curve, poor fit]"
Cc1cc(-c2ncc(CC(=O)Nc3ccc(-c4cnccn4)cn3)cc2C)ccn1,Potency,[6],"inconclusive: 14.8 µM [cytotoxic, partial curve, poor fit]"
same,Potency,[7],"inconclusive: 0.059 µM [rising, full curve, poor fit]"
same,Potency,[9],active: 6.62 µM
same,Potency,[8],"inconclusive: 14.8 µM [cytotoxic, partial curve]"
same,Potency,[3],"inconclusive: 18.7 µM [cytotoxic, partial curve]"
same,Potency,[5],"inconclusive: 4.69 µM [cytotoxic, full curve]"
CCN(CC)CCNC(=O)c1ccc2nc(-c3ccccc3)c(-c3ccc(CN4CCC(n5c(=O)[nH]c6ccccc65)CC4)cc3)nc2c1,Potency,[1],active: 0.332 µM
same,Potency,[2],active: 0.332 µM
same,Potency,[4],active: 16.6 µM
C[C@H](O)[C@@H]1C(=O)N2C(C(=O)O)=C(S[C@@H]3CN[C@H](CNS(N)(=O)=O)C3)[C@@H](C)[C@@H]12,Potency,[7],inactive
same,Potency,[10],"inconclusive: 37.2 µM [cytotoxic, single point]"
same,Potency,[9],"inconclusive: 11.8 µM [cytotoxic, partial curve, poor fit]"
same,Potency,[8],inactive
same,Potency,[2],inactive
same,Potency,[3],inactive
same,Potency,[4],"inconclusive: 16.6 µM [cytotoxic, partial curve, poor fit]"
CCCOc1ccc(C(=O)OCCN(CC)CC)cc1N,Potency,[7],"inconclusive: 0.0418 µM [rising, full curve, poor fit]"
same,Potency,[10],inactive
same,Potency,[9],inactive
same,Potency,[2],"inconclusive: 23.5 µM [cytotoxic, partial curve, poor fit]"
same,Potency,[4],"inconclusive: 0.0019 µM [rising, full curve, poor fit]"
Cc1[nH]c(C=C2C(=O)Nc3ccc(S(=O)(=O)N(C)c4cccc(Cl)c4)cc32)c(C)c1C(=O)N1CCN(C)CC1,Potency,[7],active: 9.35 µM
CC(C)(C)OC(=O)Nc1ccc(-c2cc(C(=O)NCCCCCCC(=O)NO)no2)cc1,Potency,[7],"inconclusive: 1.05 µM [cytotoxic, full curve]"
same,Potency,[10],active: 0.469 µM
same,Potency,[9],active: 2.35 µM
same,Potency,[2],active: 0.935 µM
same,Potency,[3],"inconclusive: 2.64 µM [cytotoxic, full curve]"
same,Potency,[4],active: 1.66 µM
same,Potency,[5],active: 0.935 µM
CC1(COc2ccc3c(c2)ncn3-c2ccc3cccc(N4CCC(N)CC4)c3n2)COC1,Potency,[7],"inconclusive: 8.33 µM [cytotoxic, full curve]"
same,Potency,[10],"inconclusive: 0.0118 µM [cytotoxic, full curve]"
same,Potency,[2],"inconclusive: 0.0105 µM [cytotoxic, partial curve, poor fit]"
same,Potency,[3],"inconclusive: 1.66 µM [cytotoxic, full curve]"
same,Potency,[4],active: 11.8 µM
same,Potency,[5],"inconclusive: 0.0209 µM [cytotoxic, full curve, poor fit]"
CN(C)CCCN1c2ccccc2CCc2ccc(Cl)cc21,Potency,[7],active: 9.35 µM
same,Potency,[9],"inconclusive: 14.8 µM [cytotoxic, partial curve, poor fit]"
same,Potency,[8],active: 0.833 µM
same,Potency,[2],active: 0.743 µM
same,Potency,[4],active: 18.7 µM
CC(C)(N)c1ccc(-c2nc3ccccc3nc2-c2ccccc2)cc1,Potency,[7],"inconclusive: 5.9 µM [cytotoxic, partial curve, poor fit]"
N[C@@H](Cc1ccc(O)c(O)c1)C(=O)O,Potency,[7],inactive
same,Potency,[10],"inconclusive: 0.469 µM [rising, full curve]"
same,Potency,[9],"inconclusive: 33.2 µM [cytotoxic, single point]"
same,Potency,[2],inactive
same,Potency,[4],"inconclusive: 0.0021 µM [rising, full curve, poor fit]"
Cc1ccc(S(=O)(=O)N[C@@H](Cc2ccccc2)C(=O)CCl)cc1,Potency,[7],"inconclusive: 13.2 µM [cytotoxic, partial curve, poor fit]"
same,Potency,[10],active: 5.9 µM
same,Potency,[8],active: 16.6 µM
COc1nc(C)nc(Cl)c1NC1=NCCN1,Potency,[7],inactive
same,Potency,[10],"inconclusive: 0.0019 µM [cytotoxic, full curve, poor fit]"
same,Potency,[9],"inconclusive: 14.8 µM [cytotoxic, partial curve, poor fit]"
same,Potency,[3],inactive
same,Potency,[4],inactive
Nc1ccn([C@@H]2CS[C@H](CO)O2)c(=O)n1,Potency,[7],"inconclusive: 21.5 µM [rising, single point]"
same,Potency,[10],"inconclusive: 67.9 µM [cytotoxic, single point]"
same,Potency,[9],"inconclusive: 0.0241 µM [rising, full curve]"
same,Potency,[4],inactive
same,Potency,[5],inactive
Cc1ccc(C(=O)Nc2ccc(CN3CCN(C)CC3)c(C(F)(F)F)c2)cc1C#Cc1cnc2cccnn12,Potency,[7],"inconclusive: 0.296 µM [cytotoxic, full curve, poor fit]"
same,Potency,[9],active: 2.64 µM
O=C1CCC[C@@H]2[C@H]3CCC[N+]4([O-])CCC[C@@H](CN12)[C@@H]34 (some centres undefined),Potency,[7],"inconclusive: 0.0021 µM [rising, full curve, poor fit]"
same,Potency,[10],inactive
same,Potency,[9],"inconclusive: 0.0033 µM [rising, full curve, poor fit]"
same,Potency,[8],"inconclusive: 0.0026 µM [rising, full curve, poor fit]"
same,Potency,[3],"inconclusive: 18.7 µM [rising, partial curve, poor fit]"
same,Potency,[4],"inconclusive: 0.0019 µM [rising, full curve, poor fit]"
same,Potency,[5],"inconclusive: 0.0012 µM [rising, full curve, poor fit]"
CC(C)(O)CCc1ccc(OCc2cc(-c3cccc(OC(F)F)c3)c3ncccc3c2)cc1,Potency,[7],"inconclusive: 0.0074 µM [cytotoxic, full curve, poor fit]"
same,Potency,[9],"inconclusive: 0.0418 µM [rising, full curve, poor fit]"
same,Potency,[2],"inconclusive: 20.9 µM [cytotoxic, partial curve]"
same,Potency,[4],inactive
CCCCCCCc1ccc(CCc2cccc(O)c2C(=O)O)cc1,Potency,[7],inactive
same,viability (% of control),[10],inconclusive: 128% [cytotoxic]
same,Potency,[9],"inconclusive: 3.32 µM [cytotoxic, partial curve, poor fit]"
same,Potency,[8],"inconclusive: 0.0042 µM [cytotoxic, full curve, poor fit]"
same,Potency,[2],active: 20.9 µM
Cc1cc(C(C)Nc2ccccc2)c2nc(N3CCOCC3)cc(=O)n2c1 (centres undefined),Potency,[7],"inconclusive: 5.26 µM [cytotoxic, full curve]"
same,Potency,[9],inactive
same,Potency,[8],"inconclusive: 3.72 µM [cytotoxic, full curve]"
same,Potency,[4],"inconclusive: 0.0033 µM [rising, full curve, poor fit]"

# Some of the entries so far, with tabs.
smiles	measurement	setting	value
NC(=NCc1ccccc1)NC(=O)c1nc(Cl)c(N)nc1N	Potency	[7]	inconclusive: 3.32 µM [cytotoxic, full curve, poor fit]
same	Potency	[9]	inconclusive: 0.001 µM
same	Potency	[4]	inactive
same	Potency	[5]	active: 23.5 µM
Cn1cc(-c2[nH]c3cc(NC(=O)[C@H](N)C4CCCCC4)cc4c3c2C=NNC4=O)cn1	Potency	[6]	active: 5.26 µM
same	Potency	[7]	active: 0.296 µM
same	Potency	[9]	active: 0.662 µM
same	Potency	[8]	active: 0.935 µM
CN1CCN(c2ccc3nc(-c4c(N)c5c(F)cccc5[nH]c4=O)[nH]c3c2)CC1	Potency	[6]	active: 13.2 µM
same	Potency	[9]	active: 20.9 µM
same	Potency	[2]	active: 2.64 µM
same	Potency	[4]	active: 16.6 µM
CNC(=O)c1cccc(-c2ccc3c(N4CCOC[C@H]4C)nc(N4CCOC[C@H]4C)nc3n2)c1	Potency	[6]	active: 0.0418 µM
